Assay results from the supplement of paper PMC11732987, “Enantioselective OTUD7B fragment discovery through chemoproteomics screening and high-throughput optimisation” (Communications Chemistry, 2025).
Some of the results follow. The data scatter; read single values as rough.

Compound: ClCC(=O)N[C@H]1CCCc2ccccc12
Assay: log2 mean competition ratio of IA-DTB cysteine labelling (DMSO/compound) (log2 ratio); higher = stronger cysteine engagement by compound
Conditions: 50 µM; treatment time: 4 h; cell line lysate: HEK293T
Description: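 IA-DTB competitive cysteine chemoproteomics in HEK293T RIPA lysate. Lysates were treated with compound 29 or 30 at 50 or 200 µM for 4 h, then IA-DTB (500 µM, 1 h), trypsin-digested, NeutrAvidin-enriched and analysed by diaPASEF. Competition ratio = intensity DMSO / intensity compound (n=4 treated, n=64 DMSO); binding: mean log2 CR ≥ 1 and p ≤ 0.05 plus QC filters. Target is the cysteine site.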

Target | log2 mean competition ratio
GTF3C1 C431 (UniProt Q12789) | 0.489
GTF3C4 C441 (UniProt Q9UKN8) | -0.273
GUK1 C98 (UniProt Q16774) | -0.494
HLTF C360 (UniProt Q14527) | 0.0104
HINT1 C84 (UniProt P49773) | 0.302
HOMER1 C234 (UniProt Q86YM7) | 0.175
GTF3C1 C1336 (UniProt Q12789) | -0.0761
HEATR3 C464 (UniProt Q7Z4Q2) | 0.0448
HDAC2 C417 (UniProt Q92769) | -0.0235
HIP1 C220 (UniProt O00291) | 0.345
HLA-C C125 | -0.102
HOXA11 C82 | -0.488
HDLBP C940 | -0.0777
HEATR6 C38 (UniProt Q6AI08) | -0.165
HECA C434 (UniProt Q9UBI9) | -0.741
HECTD1 C1811 (UniProt Q9ULT8) | -0.28
HK2 C368 (UniProt P52789) | -0.627
HEATR5A C1635 (UniProt Q86XA9) | -0.245
HECTD4 C3916 | -0.296
HMGCS1 C406 (UniProt Q01581) | 0.374

Same assay, conditions: 200 µM; treatment time: 4 h; cell line lysate: HEK293T

Target | log2 mean competition ratio
GTF3C1 C431 (UniProt Q12789) | 0.362
GTF3C4 C441 (UniProt Q9UKN8) | -0.157
GUK1 C98 (UniProt Q16774) | -0.129
HLTF C360 (UniProt Q14527) | 0.0632
HINT1 C84 (UniProt P49773) | -0.172
HOMER1 C234 (UniProt Q86YM7) | -0.191
GTF3C1 C1336 (UniProt Q12789) | 0.0279
HEATR3 C464 (UniProt Q7Z4Q2) | 0.125
HDAC2 C417 (UniProt Q92769) | -0.198
HIP1 C220 (UniProt O00291) | 0.869
HLA-C C125 | 0.286
HOXA11 C82 | 0.131
HDLBP C940 | 0.228
HEATR6 C38 (UniProt Q6AI08) | 0.0781
HECA C434 (UniProt Q9UBI9) | -0.165
HECTD1 C1811 (UniProt Q9ULT8) | -0.293
HK2 C368 (UniProt P52789) | 0.0546
HEATR5A C1635 (UniProt Q86XA9) | -0.142
HECTD4 C3916 | 0.0338
HMGCS1 C406 (UniProt Q01581) | -0.368
